Experimental data published in patent US10544186B2, “Process for the synthesis of amide bonds with the aid of novel catalysts” (Merck Patent GmbH, priority 2016, dated 2020).

What was measured:
[1] = Activation of Z-Aib-OH by the amide linking reagents (NMR conversion to active ester); settings: THF, TMP; for acceleration of the activation of the acid compared with the BF4/PF6 analogue: Z-Aib-OH
[2] = Synthesis of Ac-Phe-Ala-OMe: conversion and degree of epimerisation by 1H NMR; settings: THF, TMP

Compound | Conversion, % for X- = PF6- ([1]; 4 minutes) [%] | Conversion, % for X- = PF6- ([1]; 20 minutes) [%] | Conversion, % for X- = PF6- ([1]; 40 minutes) [%] | Conversion, % for X- = [(C2F5)3PF3]- ([1]; 4 minutes) | Conversion, % for X- = [(C2F5)3PF3]- ([1]; 20 minutes) | Conversion, % for X- = [(C2F5)3PF3]- ([1]; 40 minutes) | Epimerisation, % for X- = [(C2F5)3PF3]- ([2]; 5 minutes) [%] | Epimerisation, % for X- = [(C2F5)3PF3]- ([2]; 10 minutes) [%] | Epimerisation, % for X- = [(C2F5)3PF3]- ([2]; 15 minutes) [%] | also measured
CN(C)C(Oc1c(F)c(F)c(F)c(F)c1F)=[N+](C)C [drawing 10] | 52 | 80 | 87 | 91% | 95% | 97% | – | – | – | –
CN(C)C(n1n[n+]([O-])c2ccccc21)=[N+](C)C [drawing 33] | – | – | – | – | – | – | 3.1 | 2.8 | 3.2 | –
c1cnc2c(c1)nnn2O[P+](N1CCCC1)(N1CCCC1)N1CCCC1 [drawing 38] | – | – | – | – | – | – | 0.9 | 0.6 | 1.0 | Epimerisation, % for X- = PF6- ([2]; 5 minutes): 0.7%; Epimerisation, % for X- = PF6- ([2]; 10 minutes): 0.7%; Epimerisation, % for X- = PF6- ([2]; 15 minutes): 0.8%
[O-][n+]1nn(C(N2CCCC2)=[N+]2CCCC2)c2ccccc21 [drawing 13] | 11 | 21 | 24 | 87% | 97% | 97% | – | – | – | –
CN(C)C(n1n[n+]([O-])c2ncccc21)=[N+](C)C [drawing 14] | 0 | 0 | 6 | 100 100 100% | 100 100 100% | 100 100 100% | – | – | – | –
(Benzotriazol-1-yloxy)tris(pyrrolidino)phosphonium tris(pentafluoroethyl)trifluorophosphate [PyBOP-FAP] | – | – | – | – | – | – | – | – | – | acceleration of the activation of the acid compared with the BF4/PF6 analogue [1]: less pronounced
CN(C)C(On1nnc2ccccc2c1=O)=[N+](C)C [drawing 29] | – | – | – | – | – | – | 0 | 0 | 0.4 | Epimerisation, % for X- = BF4- ([2]; 5 minutes): 0%; Epimerisation, % for X- = BF4- ([2]; 10 minutes): 0%; Epimerisation, % for X- = BF4- ([2]; 15 minutes): 0.6%
c1cnc2c(c1)nnn2O[P+](N1CCCC1)(N1CCCC1)N1CCCC1 [drawing 17] | 62 | 89 | 93 | 71% | 90% | 93% | – | – | – | –
CN(C)C(n1n[n+]([O-])c2ncccc21)=[N+](C)C [drawing 35] | – | – | – | – | – | – | 1.6 | 1.2 | 1.4 | Epimerisation, % for X- = PF6- ([2]; 5 minutes): 0%; Epimerisation, % for X- = PF6- ([2]; 10 minutes): 1.0%; Epimerisation, % for X- = PF6- ([2]; 15 minutes): 1.0%
(7-Azabenzotriazol-1-yloxy)tris(pyrrolidino)phosphonium tris(pentafluoroethyl)trifluorophosphate [PyAOP-FAP] | – | – | – | – | – | – | – | – | – | acceleration of the activation of the acid compared with the BF4/PF6 analogue [1]: less pronounced
[O-][n+]1nn(C(N2CCCC2)=[N+]2CCCC2)c2ccccc21 [drawing 24] | – | – | – | – | – | – | – | – | – | Conversion, % for X- = PF6- ([2]; 5 minutes): 49%; Conversion, % for X- = PF6- ([2]; 10 minutes): 69%; Conversion, % for X- = PF6- ([2]; 15 minutes): 76%; Conversion, % for X- = [(C2F5)3PF3]- ([2]; 5 minutes): 100 100 100%; Conversion, % for X- = [(C2F5)3PF3]- ([2]; 10 minutes): 100 100 100%; Conversion, % for X- = [(C2F5)3PF3]- ([2]; 15 minutes): 100 100 100%
[O-][n+]1nn(C(N2CCCC2)=[N+]2CCCC2)c2ccccc21 [drawing 34] | – | – | – | – | – | – | 3.3 | 1.8 | 2.4 | Epimerisation, % for X- = PF6- ([2]; 5 minutes): 8.2%; Epimerisation, % for X- = PF6- ([2]; 10 minutes): 7.3%; Epimerisation, % for X- = PF6- ([2]; 15 minutes): 5.0%
CN(C)C(Sc1cccc[n+]1[O-])=[N+](C)C [drawing 11] | 3.7 | 3.7 | 4.0 | 8% | 15% | 21% | – | – | – | –
